Earlier results as cited in patent US20230042509A1, “TREATMENT FOR DISEASES CAUSED BY RNA VIRUSES” (Amerimmune LLC, priority 2021, published 2023).
For at least one compound, name, drawing or mass did not settle the structure.

Test system: COVID-19
Conditions: critically ill patients; cited from earlier work

C[C@@H]1C[C@H]2[C@@H]3CCC4=CC(=O)C=C[C@]4(C)[C@@]3(F)[C@@H](O)C[C@]2(C)[C@@]1(O)C(=O)CO [dexamethasone]
severe outcomes: reduced severe outcomes
